This is one part of the list. The exact form of the protein is not confirmed.
The sequences below were run against T1, ETS1 (UniProt P14921) (assay: DAPPL (digital affinity profiling via proximity ligation, sequencing)). Settings: 10 mM Tris-HCl pH 7.5, 50 mM NaCl, 1 mM DTT, 4% glycerol, room temperature, 30 min; GST-TFs on glutathione beads, 16-mer random dsDNA library, 0.1% …; high values mean tight binding; double strand, one strand shown; scale: fold enrichment (6-mer frequency, TF over GST control).
T1 sequence: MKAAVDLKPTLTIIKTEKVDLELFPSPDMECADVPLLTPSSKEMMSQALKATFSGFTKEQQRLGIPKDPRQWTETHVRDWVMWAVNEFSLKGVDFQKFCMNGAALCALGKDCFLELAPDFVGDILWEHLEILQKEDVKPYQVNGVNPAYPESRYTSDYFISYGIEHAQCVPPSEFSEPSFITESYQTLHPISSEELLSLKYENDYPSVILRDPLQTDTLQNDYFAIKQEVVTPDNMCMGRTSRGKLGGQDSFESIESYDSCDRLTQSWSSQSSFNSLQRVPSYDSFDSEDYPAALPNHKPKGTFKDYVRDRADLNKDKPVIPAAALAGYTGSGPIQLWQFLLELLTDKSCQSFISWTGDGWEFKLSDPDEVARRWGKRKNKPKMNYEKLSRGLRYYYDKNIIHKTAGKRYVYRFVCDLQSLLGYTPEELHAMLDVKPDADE

| Sequence | binding signal |
| --- | --- |
| TTATTC | 1.4 |
| CGTCAC | 1.27 |
| TTTTGG | 1.4 |
| GGTAAA | 1.01 |
| TCAAGG | 1.05 |
| AGTACA | 1.08 |
| TCACTC | 1.18 |
| ACGATG | 1.21 |
| AACCTG | 1.25 |
| ACGACT | 1.26 |
| GATCCC | 1.11 |
| TGCGAC | 1.12 |
| TCTATC | 1.22 |
| AATAGT | 1.23 |
| CACTAC | 1.3 |
| TTCCTA | 1.65 |
| TACGCA | 1.18 |
| CACCCT | 1.17 |
| AATATC | 1.46 |
| TGTCCC | 1.4 |

Three records drawn at random from those above, as already listed:

| Sequence | binding signal |
| --- | --- |
| AATATC | 1.46 |
| TTCCTA | 1.65 |
| TGCGAC | 1.12 |

Later entries:

| Sequence | binding signal |
| --- | --- |
| CCCTCA | 1.16 |
| ATACGG | 1.32 |
| TGATAC | 1.09 |
| TACTCA | 1.15 |
| GCTCTC | 1.35 |
| TGTACC | 1.3 |
| CTTGCG | 1.45 |
| ACCTGG | 1.25 |
| CCACAC | 1 |
| TTTCTG | 1.39 |
| TACAAA | 1.21 |
| TACTGT | 1.11 |
| TTTTCC | 1.77 |
| TGTATG | 1.27 |
| CCACAA | 1.23 |
| AGGTCT | 1.18 |
| TGATGA | 1.32 |
| TTTGCC | 1.45 |
| TCAATT | 1.24 |

— PMC7862700
